# Assay results published in the supplement of paper PMC6411743.
# Amino acid sequences for entries named in this document (tags omitted). A change or cut given only in a name is not applied to a line headed by its entry.
# UniProt Q9H0H0, whole entry: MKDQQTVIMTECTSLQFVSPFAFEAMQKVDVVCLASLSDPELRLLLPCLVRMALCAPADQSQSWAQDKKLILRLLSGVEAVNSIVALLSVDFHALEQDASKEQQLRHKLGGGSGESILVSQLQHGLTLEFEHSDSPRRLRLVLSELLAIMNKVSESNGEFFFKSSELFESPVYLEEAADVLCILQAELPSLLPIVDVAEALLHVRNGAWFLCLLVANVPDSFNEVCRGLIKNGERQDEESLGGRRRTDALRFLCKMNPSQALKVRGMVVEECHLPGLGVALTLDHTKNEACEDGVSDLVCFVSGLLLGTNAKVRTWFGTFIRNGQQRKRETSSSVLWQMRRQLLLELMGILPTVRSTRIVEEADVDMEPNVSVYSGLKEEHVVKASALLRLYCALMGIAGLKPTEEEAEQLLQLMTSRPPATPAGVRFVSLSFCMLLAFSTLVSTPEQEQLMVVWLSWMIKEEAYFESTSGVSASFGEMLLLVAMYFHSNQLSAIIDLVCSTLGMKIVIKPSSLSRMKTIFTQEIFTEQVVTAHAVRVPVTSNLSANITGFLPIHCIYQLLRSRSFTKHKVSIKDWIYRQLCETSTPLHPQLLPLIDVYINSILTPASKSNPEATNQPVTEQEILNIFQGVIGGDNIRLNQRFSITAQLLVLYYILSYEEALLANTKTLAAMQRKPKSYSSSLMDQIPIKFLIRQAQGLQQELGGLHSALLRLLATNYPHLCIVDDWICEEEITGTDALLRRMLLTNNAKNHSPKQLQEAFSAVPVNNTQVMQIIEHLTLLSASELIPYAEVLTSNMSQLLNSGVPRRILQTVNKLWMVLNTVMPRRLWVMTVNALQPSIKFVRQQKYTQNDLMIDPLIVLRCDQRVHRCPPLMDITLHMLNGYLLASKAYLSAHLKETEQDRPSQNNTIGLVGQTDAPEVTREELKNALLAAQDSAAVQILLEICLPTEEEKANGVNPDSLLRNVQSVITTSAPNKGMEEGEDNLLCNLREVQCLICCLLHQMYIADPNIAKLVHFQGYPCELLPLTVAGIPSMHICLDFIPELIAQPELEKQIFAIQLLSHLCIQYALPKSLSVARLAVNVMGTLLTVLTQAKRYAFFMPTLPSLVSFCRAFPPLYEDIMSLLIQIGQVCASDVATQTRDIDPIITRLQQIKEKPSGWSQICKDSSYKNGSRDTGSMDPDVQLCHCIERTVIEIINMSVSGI
# UniProt Q15831: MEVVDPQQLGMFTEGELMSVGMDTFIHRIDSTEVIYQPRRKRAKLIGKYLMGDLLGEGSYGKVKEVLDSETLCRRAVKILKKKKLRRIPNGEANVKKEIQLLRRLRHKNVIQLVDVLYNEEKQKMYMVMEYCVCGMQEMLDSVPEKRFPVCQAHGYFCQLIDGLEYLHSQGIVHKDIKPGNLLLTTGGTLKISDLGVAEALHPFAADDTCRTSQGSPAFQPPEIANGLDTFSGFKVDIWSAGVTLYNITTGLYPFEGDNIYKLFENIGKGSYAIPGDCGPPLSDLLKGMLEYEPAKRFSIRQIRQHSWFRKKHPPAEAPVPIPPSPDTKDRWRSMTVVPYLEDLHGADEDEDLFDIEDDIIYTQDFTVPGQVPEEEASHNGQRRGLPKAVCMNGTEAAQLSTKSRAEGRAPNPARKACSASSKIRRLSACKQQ
# UniProt Q9BWH6: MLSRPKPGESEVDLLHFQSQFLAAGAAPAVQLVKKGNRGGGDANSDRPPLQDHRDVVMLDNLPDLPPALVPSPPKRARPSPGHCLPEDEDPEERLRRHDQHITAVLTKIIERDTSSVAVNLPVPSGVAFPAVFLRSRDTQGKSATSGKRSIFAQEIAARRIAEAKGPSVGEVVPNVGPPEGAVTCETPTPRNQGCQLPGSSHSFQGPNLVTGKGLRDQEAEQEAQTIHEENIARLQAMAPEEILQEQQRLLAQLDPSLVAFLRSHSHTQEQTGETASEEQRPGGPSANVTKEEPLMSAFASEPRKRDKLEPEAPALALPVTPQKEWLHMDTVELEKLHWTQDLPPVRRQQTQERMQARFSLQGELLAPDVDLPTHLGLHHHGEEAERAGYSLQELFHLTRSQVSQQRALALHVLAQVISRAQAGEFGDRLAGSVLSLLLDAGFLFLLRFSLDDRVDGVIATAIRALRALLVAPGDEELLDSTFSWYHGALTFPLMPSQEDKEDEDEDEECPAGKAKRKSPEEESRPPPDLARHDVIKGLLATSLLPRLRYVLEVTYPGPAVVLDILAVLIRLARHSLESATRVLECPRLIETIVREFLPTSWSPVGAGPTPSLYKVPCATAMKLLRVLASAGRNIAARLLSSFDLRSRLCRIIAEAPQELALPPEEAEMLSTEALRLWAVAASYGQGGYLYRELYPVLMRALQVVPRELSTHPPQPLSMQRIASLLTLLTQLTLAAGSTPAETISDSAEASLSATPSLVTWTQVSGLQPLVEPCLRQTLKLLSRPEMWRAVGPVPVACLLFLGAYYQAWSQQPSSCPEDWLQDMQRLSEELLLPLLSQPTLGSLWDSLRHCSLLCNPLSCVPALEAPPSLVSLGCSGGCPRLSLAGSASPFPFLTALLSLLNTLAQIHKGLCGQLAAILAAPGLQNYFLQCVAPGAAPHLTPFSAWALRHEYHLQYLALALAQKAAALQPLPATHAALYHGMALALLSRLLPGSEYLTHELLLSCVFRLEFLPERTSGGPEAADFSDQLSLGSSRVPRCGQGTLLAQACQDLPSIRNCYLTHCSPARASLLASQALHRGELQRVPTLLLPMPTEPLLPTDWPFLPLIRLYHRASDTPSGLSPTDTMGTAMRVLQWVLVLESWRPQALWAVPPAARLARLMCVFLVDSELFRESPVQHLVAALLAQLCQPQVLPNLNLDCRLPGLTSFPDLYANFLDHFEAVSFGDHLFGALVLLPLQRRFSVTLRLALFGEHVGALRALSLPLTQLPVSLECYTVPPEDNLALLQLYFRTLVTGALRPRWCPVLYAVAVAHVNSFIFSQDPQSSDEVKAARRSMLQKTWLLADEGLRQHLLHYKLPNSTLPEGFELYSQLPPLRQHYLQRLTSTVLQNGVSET
# UniProt Q9Y2K7: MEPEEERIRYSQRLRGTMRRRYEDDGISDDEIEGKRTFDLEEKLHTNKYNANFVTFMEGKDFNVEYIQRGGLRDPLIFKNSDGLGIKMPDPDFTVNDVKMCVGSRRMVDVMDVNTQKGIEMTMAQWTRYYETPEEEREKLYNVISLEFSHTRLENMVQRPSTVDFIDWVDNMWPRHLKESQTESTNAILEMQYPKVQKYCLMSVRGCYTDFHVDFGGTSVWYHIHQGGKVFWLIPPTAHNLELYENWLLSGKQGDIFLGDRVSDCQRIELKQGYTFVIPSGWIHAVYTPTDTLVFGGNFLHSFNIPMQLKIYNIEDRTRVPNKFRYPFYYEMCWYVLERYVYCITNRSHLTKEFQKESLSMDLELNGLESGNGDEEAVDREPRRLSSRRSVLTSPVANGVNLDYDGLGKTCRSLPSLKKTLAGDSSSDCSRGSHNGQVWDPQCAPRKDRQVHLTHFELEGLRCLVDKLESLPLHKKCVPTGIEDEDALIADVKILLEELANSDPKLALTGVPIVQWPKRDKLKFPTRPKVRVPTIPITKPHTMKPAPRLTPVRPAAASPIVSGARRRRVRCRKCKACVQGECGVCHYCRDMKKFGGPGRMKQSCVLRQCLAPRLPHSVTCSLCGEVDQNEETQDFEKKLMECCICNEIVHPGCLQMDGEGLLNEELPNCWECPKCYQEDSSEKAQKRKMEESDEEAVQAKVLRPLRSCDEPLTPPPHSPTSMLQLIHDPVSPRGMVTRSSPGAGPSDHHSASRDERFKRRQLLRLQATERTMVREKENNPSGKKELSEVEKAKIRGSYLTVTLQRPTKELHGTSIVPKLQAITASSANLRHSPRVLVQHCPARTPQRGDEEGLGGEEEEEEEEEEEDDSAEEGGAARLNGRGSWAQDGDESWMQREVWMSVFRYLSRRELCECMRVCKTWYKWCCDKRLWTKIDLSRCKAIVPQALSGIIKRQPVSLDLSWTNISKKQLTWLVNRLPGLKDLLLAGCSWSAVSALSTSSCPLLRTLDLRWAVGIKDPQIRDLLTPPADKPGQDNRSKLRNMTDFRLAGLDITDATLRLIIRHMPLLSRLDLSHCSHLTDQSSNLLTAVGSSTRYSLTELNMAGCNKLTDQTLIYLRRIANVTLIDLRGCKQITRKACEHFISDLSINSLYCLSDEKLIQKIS
# UniProt Q9NRY6: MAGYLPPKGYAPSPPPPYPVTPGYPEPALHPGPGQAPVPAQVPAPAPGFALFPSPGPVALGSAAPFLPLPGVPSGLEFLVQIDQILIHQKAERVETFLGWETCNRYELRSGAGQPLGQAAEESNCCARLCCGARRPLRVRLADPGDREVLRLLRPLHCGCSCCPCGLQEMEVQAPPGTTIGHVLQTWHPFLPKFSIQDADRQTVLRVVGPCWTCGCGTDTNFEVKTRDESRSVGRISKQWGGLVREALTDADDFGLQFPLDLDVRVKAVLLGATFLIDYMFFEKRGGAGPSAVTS
# ± gives the standard deviation of the averaged measurements. The list shows a part of the results.
# Compound: Nc1nc2c(ncn2[C@@H]2O[C@H](COP(=O)(O)OP(=O)(O)OP(=O)(O)O)[C@@H](O)[C@H]2O)c(=O)[nH]1 [guanosine triphosphate]
# Assay: NP40-soluble protein abundance relative to vehicle (solubility fold change) (ratio); higher = more soluble protein in presence of GTP
# Protocol: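 Solubility proteome profiling in Jurkat crude lysate. Lysate was treated with Mg-GTP (0.1-10 mM) for 10 min at room temperature and 3 min at 37 °C, then solubilised with 0.8% NP40 and benzonase, followed by ultracentrifugation. Proteins were quantified by TMT10 LC-MS/MS; the value is the NP40-soluble abundance relative to the NP40-processed vehicle, from 3 independent experiments.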
Target,NP40-soluble protein abundance (concentration: 0.1mM),NP40-soluble protein abundance (concentration: 0.5mM),NP40-soluble protein abundance (concentration: 1mM),NP40-soluble protein abundance (concentration: 2mM),NP40-soluble protein abundance (concentration: 4mM),NP40-soluble protein abundance (concentration: 6mM),NP40-soluble protein abundance (concentration: 8mM),NP40-soluble protein abundance (concentration: 10mM)
J3KMZ7 and related entries (UniProt Q9H0H0),1.04 ± 0.13,1.08 ± 0.19,1.13 ± 0.23,1.14 ± 0.24,1.18 ± 0.31,1.16 ± 0.33,0.999 ± 0.3,1.19 ± 0.35
K7EP59 and related entries (UniProt Q15831),1.071 ± 0.0048,1.1 ± 0.027,0.965 ± 0.024,0.946 ± 0.015,0.944 ± 0.092,0.932 ± 0.013,0.905 ± 0.12,0.914 ± 0.051
H3BRE8 and related entries (UniProt Q9BWH6),1.02 ± 0.038,1.02 ± 0.11,1.02 ± 0.074,1.01 ± 0.071,1.05 ± 0.032,1.04 ± 0.051,1.05 ± 0.083,1.05 ± 0.093
I3VM54 and related entries (UniProt Q9Y2K7),1.13 ± 0.029,1.09 ± 0.015,1.11 ± 0.011,1.21 ± 0.036,1.29 ± 0.053,1.35 ± 0.047,1.43 ± 0.043,1.503 ± 0.013
I3L3X5 and related entries (UniProt Q9NRY6+I3L3X5),1.19 ± 0.13,1.28 ± 0.2,1.3 ± 0.44,1.3 ± 0.26,1.48 ± 0.43,1.31 ± 0.29,1.08 ± 0.17,0.952 ± 0.24
